Results reported in patent US20120245128A1, “RAPID DETECTION AND QUANTIFICATION OF MODIFICATION OF MEDICINAL COMPOUNDS AND DRUG RESISTANCE ACTIVITY” (The Board of Regents of the University of Texas System, priority 2011, published 2012).

What follows are compounds tested on β-lactamase (assay: five antibiotic mixture subjected to β-lactamase, monitored by SRM). Details: 5 antibiotic mixture; reaction time less than 5 minutes.
Assay type: biochemical

| Compound | hydrolysis by β-lactamase (SRM) |
| --- | --- |
| CC1(C)S[C@@H]2[C@H](NC(=O)[C@H](N)c3ccccc3)C(=O)N2[C@H]1C(=O)O [ampicillin] | completely hydrolyzed |
| CC1=C(C(=O)O)N2C(=O)[C@@H](NC(=O)[C@H](N)c3ccccc3)[C@H]2SC1 [cephalexin] | completely hydrolyzed |
| O=C(N[C@H](CO)[C@H](O)c1ccc([N+](=O)[O-])cc1)C(Cl)Cl [chloramphenicol] | remained unaffected |
| Cc1onc(-c2ccccc2Cl)c1C(=O)N[C@@H]1C(=O)N2[C@@H]1SC(C)(C)[C@@H]2C(=O)O [cloxacillin] | remained unaffected |
| CCN1CCN(C(=O)N[C@@H](C(=O)N[C@@H]2C(=O)N3[C@@H]2SC(C)(C)[C@@H]3C(=O)O)c2ccccc2)C(=O)C1=O [piperacillin] | completely hydrolyzed |
